Source: patent US20100221748A1 (WASHINGTON UNIVERSITY, published 2010)

Molecular target: T1, Rb (mouse, UniProt P13405 2-921, phosphorylation state varies by sample; Ser804 (Ser811 in human) hypophosphorylated in β1-/- NPCs)
T1 construct: Endogenous protein from wildtype or β1-/- mouse NPC lysates; also called retinoblastoma protein; pan Rb
T1 sequence (looked up): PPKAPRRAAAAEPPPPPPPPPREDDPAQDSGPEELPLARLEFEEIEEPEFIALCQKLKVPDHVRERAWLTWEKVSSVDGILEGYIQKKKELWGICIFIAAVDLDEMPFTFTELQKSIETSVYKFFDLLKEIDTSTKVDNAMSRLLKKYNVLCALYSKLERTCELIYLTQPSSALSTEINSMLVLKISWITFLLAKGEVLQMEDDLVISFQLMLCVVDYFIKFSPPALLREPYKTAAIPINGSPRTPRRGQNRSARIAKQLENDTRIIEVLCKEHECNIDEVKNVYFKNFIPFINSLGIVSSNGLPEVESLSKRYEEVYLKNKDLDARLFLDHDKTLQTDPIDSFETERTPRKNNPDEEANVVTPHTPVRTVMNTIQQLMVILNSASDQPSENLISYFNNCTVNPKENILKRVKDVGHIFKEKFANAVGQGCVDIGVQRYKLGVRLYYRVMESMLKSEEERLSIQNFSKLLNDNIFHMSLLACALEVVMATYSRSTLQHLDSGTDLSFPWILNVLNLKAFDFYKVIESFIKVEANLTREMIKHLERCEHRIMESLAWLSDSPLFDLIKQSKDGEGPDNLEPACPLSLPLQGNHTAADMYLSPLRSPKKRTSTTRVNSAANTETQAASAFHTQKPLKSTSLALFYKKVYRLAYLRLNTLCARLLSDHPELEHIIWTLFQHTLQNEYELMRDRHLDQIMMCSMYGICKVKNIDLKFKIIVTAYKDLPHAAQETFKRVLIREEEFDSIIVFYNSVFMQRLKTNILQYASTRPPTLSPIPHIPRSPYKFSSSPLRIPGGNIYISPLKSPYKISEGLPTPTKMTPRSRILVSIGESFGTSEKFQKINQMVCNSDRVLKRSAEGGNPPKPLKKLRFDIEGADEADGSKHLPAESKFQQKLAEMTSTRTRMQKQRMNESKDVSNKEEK
Assay: immunoprecipitation of NPC lysates with pan Rb antibody, Western blot with E2F1 antibody, densitometry
Description: The primary antibodies were incubated with 100 μg of protein lysate at 40 C for 16 hr, the immune complexes were collected by incubation with 10 μl of Protein G beads for 1 hr at 40 C and centrifugation. The immunoprecipitated proteins were analyzed by standard immunoblot analysis. […] Detection was performed using anti-rabbit or anti-mouse HRP-linked secondary antibodies (Cell Signaling Technology, Beverly, Mass.) followed by Chemiluminescence (Millipore, Billerica, Mass.). When applicable, subcellular fractionation was performed using a commercially available kit (BioVision Inc. Mountain View, Calif.) following manufacturers instructions.
In proliferating cells, growth factor signaling promotes CDK-dependent phosphorylation of Rb to inhibit it from sequestering the G1 transcription factor E2F1 (Galderisi, U., et al., Oncogene. 22, 5208-19, 2003). To examine whether E2F1 is sequestered by hypophosphorylated Rb in β1−/− NPCs, we immunoprecipitated Rb from NPCs. In these experiments, NPC lysates were immunoprecipitated with pan Rb antibody, followed by Western blot with an E2F1 antibody and densitometry. […] AU, arbitrary units.

B1: E2F1 (other, mouse, UniProt Q61501 1-430, looked up)
chain: MAVAPAGGQHAPALEALLGAGALRLLDSSQIVIISTAPDVGAPQLPAAPPTGPRDSDVLLFATPQAPRPAPSAPRPALGRPPVKRRLDLETDHQYLAGSSGPFRGRGRHPGKGVKSPGEKSRYETSLNLTTKRFLELLSRSADGVVDLNWAAEVLKVQKRRIYDITNVLEGIQLIAKKSKNHIQWLGSHTMVGIGKRLEGLTQDLQQLQESEQQLDHLMHICTTQLQLLSEDSDTQRLAYVTCQDLRSIADPAEQMVIVIKAPPETQLQAVDSSETFQISLKSKQGPIDVFLCPEESADGISPGKTSCQETSSGEDRTADSGPAGPPPSPPSTSPALDPSQSLLGLEQEAVLPRMGHLRVPMEEDQLSPLVAADSLLEHVKEDFSGLLPGEFISLSPPHEALDYHFGLEEGEGIRDLFDCDFGDLTPLDF
notes: Endogenous protein co-immunoprecipitated with Rb; also called G1 transcription factor E2F1
fold more E2F1 bound to Rb in β1-/- vs. wildtype NPCs: 7.6 fold
